This note sets out measurements from paper doi:10.1101/2020.11.06.341933.

In this data set the target is His-NtrX, phosphorylated (NtrXr-P) (Sinorhizobium meliloti 1021) (UniProt Q92Q87). The experiment in a line: EMSA. The note with it: acetyl phosphate-phosphorylated.

Construct, isoform or probe ends are uncertain for at least one entry.

In the case of “TGGGGCAATGGCTGAAAGAAAGTTTCTAGATCGGTCGGCATATCGCCGGACGAGACAGGTGTTCGAGTTTGAAGGAATTGGCCGGCTCGGCAAGGCGGCCAGGGAAAGAGAAGGAACAGGACATGGCCATCAACTTGCAGAAGCCGGACATTACCGAGCTGAAGCCGCGTATCACGGTCTTCGG (double strand) [PftsZ1 probe]”, the binding result is on record as “binds”.
